Experimental data taken from patent US20030207933A1, “Compositions and methods for increasing the sensitivity of apoptosis-resistant tumor cells to inducers of apoptosis” (priority 2002, published 2003).
At least one structure is not confirmed: it was looked up by name or label, or the drawing left a doubt.

System: overexpression of Bcl-2
Assay: Comparison with compounds reported to counteract Bcl-2
Type: cell-based
Details: at 20 μM (the highest non-toxic concentration); data not shown
Excerpt: W-188 was then compared to other compounds previously reported to counteract Bcl-2 (Marchetti, P., et al., J. Immunol., 1996, 157:4830; Hirsch, T., et al., Exp. Cell Res., 1998, 241:426).

C=CC1=C(C)c2cc3[nH]c(cc4nc(cc5[nH]c(cc1n2)c(C)c5CCC(=O)O)C(CCC(=O)O)=C4C)c(C)c3C=C [protoporphyrin IX]
Reversal of the effect of overexpression of Bcl-2: completely ineffective
